Data: PMC7575592
Results are given in words; binding and its absence hold for the method and conditions named. Binding seen in cells or lysates may run through a third protein. Some entries that bind do so weakly or less than the wild type.

Sequences of proteins named here, by UniProt entry; tags and fusion partners are left off.
UniProt O95622: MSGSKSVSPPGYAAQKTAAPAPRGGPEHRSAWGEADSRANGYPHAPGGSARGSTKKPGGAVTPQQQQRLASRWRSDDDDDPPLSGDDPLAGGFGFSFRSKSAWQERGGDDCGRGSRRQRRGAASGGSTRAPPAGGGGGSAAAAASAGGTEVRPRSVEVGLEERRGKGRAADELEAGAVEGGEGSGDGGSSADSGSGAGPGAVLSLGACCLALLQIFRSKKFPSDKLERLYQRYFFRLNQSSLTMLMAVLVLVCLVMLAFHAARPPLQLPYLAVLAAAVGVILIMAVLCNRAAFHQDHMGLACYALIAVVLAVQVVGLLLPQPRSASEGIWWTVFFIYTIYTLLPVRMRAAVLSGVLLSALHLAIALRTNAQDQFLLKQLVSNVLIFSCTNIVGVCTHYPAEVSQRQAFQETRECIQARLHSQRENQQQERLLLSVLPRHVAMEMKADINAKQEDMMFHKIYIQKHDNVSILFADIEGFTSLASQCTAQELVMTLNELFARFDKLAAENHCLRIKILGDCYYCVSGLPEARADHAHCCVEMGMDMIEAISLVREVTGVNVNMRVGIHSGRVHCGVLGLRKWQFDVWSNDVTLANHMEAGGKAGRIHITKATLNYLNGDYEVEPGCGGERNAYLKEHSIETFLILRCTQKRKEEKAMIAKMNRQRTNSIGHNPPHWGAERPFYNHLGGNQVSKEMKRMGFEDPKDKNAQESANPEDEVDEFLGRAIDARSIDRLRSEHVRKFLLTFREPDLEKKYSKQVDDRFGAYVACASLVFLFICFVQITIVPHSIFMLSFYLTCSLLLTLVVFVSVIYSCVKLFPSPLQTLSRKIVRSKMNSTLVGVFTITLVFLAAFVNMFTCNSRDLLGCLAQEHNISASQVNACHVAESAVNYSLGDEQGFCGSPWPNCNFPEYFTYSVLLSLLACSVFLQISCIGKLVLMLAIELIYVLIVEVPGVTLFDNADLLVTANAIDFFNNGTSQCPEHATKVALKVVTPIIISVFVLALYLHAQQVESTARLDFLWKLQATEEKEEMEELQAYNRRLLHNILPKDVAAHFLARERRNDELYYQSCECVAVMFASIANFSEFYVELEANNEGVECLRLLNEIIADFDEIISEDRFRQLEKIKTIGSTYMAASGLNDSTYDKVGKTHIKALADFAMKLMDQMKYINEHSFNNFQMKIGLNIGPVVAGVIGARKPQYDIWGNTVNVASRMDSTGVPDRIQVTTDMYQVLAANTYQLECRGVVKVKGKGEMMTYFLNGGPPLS

Target: adenylyl cyclase 5 (AC5), human (human (endogenous in adipose arterial myocytes)) (UniProt O95622)
Experiment: proximity ligation; Duolink in situ PLA on freshly dissociated human male and female adipose arterial myocytes, fixed with 3% glyoxal and permeabilised; two primary antibodies; signal when proteins are within 40 nm; puncta per cell area

B1: P2Y11 receptor, human (receptor, UniProt Q96G91 1-374)
chain: MAANVSGAKSCPANFLAAADDKLSGFQGDFLWPILVVEFLVAVASNGLALYRFSIRKQRPWHPAVVFSVQLAVSDLLCALTLPPLAAYLYPPKHWRYGEAACRLERFLFTCNLLGSVIFITCISLNRYLGIVHPFFARSHLRPKHAWAVSAAGWVLAALLAMPTLSFSHLKRPQQGAGNCSVARPEACIKCLGTADHGLAAYRAYSLVLAGLGCGLPLLLTLAAYGALGRAVLRSPGMTVAEKLRVAALVASGVALYASSYVPYHIMRVLNVDARRRWSTRCPSFADIAQATAALELGPYVGYQVMRGLMPLAFCVHPLLYMAAVPSLGCCCRHCPGYRDSWNPEDAKSTGQALPLNATAAPKPSEPQSRELSQ
For B1, the binding was “binds”.
